{"source": "PubChem BioAssay AID1259425 | University of Nebraska Medical Center | 2018", "aim": "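Compare each knockdown with KSR1 silencing using changes in marker transcripts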 (primary screen)", "cells": "HCT116 human colon cancer cells", "reagents": "siRNA pool against human genes, 50 nM siRNA", "detection": "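After 50 nM siRNA pool, branched-DNA assay measures six marker transcripts per well, minus blank, normalised to the geometric mean of two housekeeping transcripts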", "scale": "BNIP3L mRNA: higher = more BNIP3L transcript after knockdown; NDRG1 mRNA: higher = more NDRG1 transcript after knockdown", "note": "Shown is an unselected part of about 14,000 reagents tested. Not all columns of the deposit are shown. Not given: the time to read-out."}
{"target gene":"PCDHGA3","BNIP3L mRNA, set 1":0.103,"NDRG1 mRNA, set 1":0.099}
{"target gene":"ATP7B","BNIP3L mRNA, set 1":0.127,"NDRG1 mRNA, set 1":0.545}
{"target gene":"CUL9","BNIP3L mRNA, set 1":0.0589,"NDRG1 mRNA, set 1":0.198}
{"target gene":"MARCKSL1","BNIP3L mRNA, set 1":0.175,"NDRG1 mRNA, set 1":0.178}
{"target gene":"KCNMB1","BNIP3L mRNA, set 1":0.093,"NDRG1 mRNA, set 1":0.133}
{"target gene":"PLPP4","BNIP3L mRNA, set 1":0.181,"NDRG1 mRNA, set 1":0.546}
{"target gene":"ZBTB3","BNIP3L mRNA, set 1":0.139,"NDRG1 mRNA, set 1":0.257}
{"target gene":"MBOAT7","BNIP3L mRNA, set 1":0.07,"NDRG1 mRNA, set 1":0.216}
{"target gene":"ARV1","BNIP3L mRNA, set 1":0.0889,"NDRG1 mRNA, set 1":0.134}
{"target gene":"SOCS3","BNIP3L mRNA, set 1":0.0892,"NDRG1 mRNA, set 1":0.0976}
{"target gene":"CHD2","BNIP3L mRNA, set 1":0.0493,"NDRG1 mRNA, set 1":0.12}
{"target gene":"DNPH1","BNIP3L mRNA, set 1":0.105,"NDRG1 mRNA, set 1":0.336}
{"target gene":"DCAF6","BNIP3L mRNA, set 1":0.324,"NDRG1 mRNA, set 1":0.42}
{"target gene":"HOXD13","BNIP3L mRNA, set 1":0.142,"NDRG1 mRNA, set 1":0.163}
{"target gene":"SGPL1","BNIP3L mRNA, set 1":0.275,"NDRG1 mRNA, set 1":0.106}
{"target gene":"SPAG16","BNIP3L mRNA, set 1":0.0948,"NDRG1 mRNA, set 1":0.168}
{"target gene":"LPAR5","BNIP3L mRNA, set 1":0.242,"NDRG1 mRNA, set 1":0.248}
{"target gene":"GRIN2D","BNIP3L mRNA, set 1":0.0775,"NDRG1 mRNA, set 1":0.255}
{"target gene":"CALU","BNIP3L mRNA, set 1":0.0471,"NDRG1 mRNA, set 1":0.705}
{"target gene":"CABP4","BNIP3L mRNA, set 1":0.197,"NDRG1 mRNA, set 1":0.224}
{"target gene":"KLRD1","BNIP3L mRNA, set 1":0.151,"NDRG1 mRNA, set 1":0.0875}
{"target gene":"H3C2","BNIP3L mRNA, set 1":0.0699,"NDRG1 mRNA, set 1":0.0914}
{"target gene":"CLUHP3","BNIP3L mRNA, set 1":0.141,"NDRG1 mRNA, set 1":0.324}
{"target gene":"CPLANE2","BNIP3L mRNA, set 1":0.0603,"NDRG1 mRNA, set 1":0.232}
{"target gene":"FNDC8","BNIP3L mRNA, set 1":0.14,"NDRG1 mRNA, set 1":0.373}
{"target gene":"DHX40","BNIP3L mRNA, set 1":0.189,"NDRG1 mRNA, set 1":0.451}
{"target gene":"BCL7B","BNIP3L mRNA, set 1":0.136,"NDRG1 mRNA, set 1":0.256}
{"target gene":"AGA","BNIP3L mRNA, set 1":0.114,"NDRG1 mRNA, set 1":0.186}

An excerpt from above, showing only “NDRG1 mRNA, set 1”.
SOCS3: 0.0976
CHD2: 0.12
